The record followed here is patent US5320957.

Protein sequences can lack the tags named with them.

The series concerns the target T1, M.DdeI methyltransferase (clone pDdeM1.6) (Desulfovibrio desulfuricans) (UniProt P05302).
T1 sequence (looked up, limits assumed): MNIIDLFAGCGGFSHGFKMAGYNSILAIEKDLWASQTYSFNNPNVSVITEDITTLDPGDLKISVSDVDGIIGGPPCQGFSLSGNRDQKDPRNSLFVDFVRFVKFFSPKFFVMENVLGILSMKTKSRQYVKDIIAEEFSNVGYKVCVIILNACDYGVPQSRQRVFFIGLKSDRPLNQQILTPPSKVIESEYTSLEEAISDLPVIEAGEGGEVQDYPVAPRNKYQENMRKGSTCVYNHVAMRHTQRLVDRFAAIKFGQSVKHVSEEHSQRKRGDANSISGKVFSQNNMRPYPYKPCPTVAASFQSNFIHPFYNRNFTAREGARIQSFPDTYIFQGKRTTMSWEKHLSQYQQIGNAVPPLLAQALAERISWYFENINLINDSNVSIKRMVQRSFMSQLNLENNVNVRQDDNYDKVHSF
In words: activity assay. The note with it: methylation of the lambda MluI fragment blocks Sau3A cleavage (new 652 bp fragment); cytosine methylase; protein in a lysate after overexpression; protein details: expressed from plasmid clones in E. coli.

Regarding “GATCTCAG (double strand) [lambda DNA overlapping Sau3A/DdeI site (position 2532)]”, the “activity on this sequence” value is “active”.
